Source: patent US6407075B1, “Fatty acid treatment” (priority 1996, dated 2002)
At least one structure is not confirmed: it was looked up by name or label, or the drawing left a doubt.

What was measured:
[1] = system: cardiotoxicity of doxorubicin; experiment: Cardiotoxicity of doxorubicin in mice pre-treated with fatty acids; assay type: in vivo; conditions: 20 mg doxorubicin intraperitoneally, fatty acid pre-treatment
[2] = system: streptozotocin damage to the islet cells of the pancreas; experiment: Streptozotocin-induced diabetes in rats; assay type: in vivo; conditions: fatty acid administered prior to streptozotocin
Description: In a third animal study, the anti-cancer streptozotocin was used. A major effect of this compound is to damage the islet cells of the pancreas and consequently to lead to insulin dependent diabetes.

Compound | reduction in cardiac weight characteristic of doxorubicin toxicity [1] | likelihood of the development of diabetes [2]
CC/C=C\C/C=C\C/C=C\C/C=C\C/C=C\C/C=C\CCC(=O)O [DHA, docosahexaenoic acid] | considerably attenuated | –
CC/C=C\C/C=C\C/C=C\C/C=C\C/C=C\CCCC(=O)O [EPA, eicosapentaenoic acid] | considerably attenuated | greatly reduced
